Experimental data: paper PMC7862700
The list shows a part of the results, in another mix than the full data. At the low end of the ranking, values are background and their order means little.

target: SPI1 (UniProt P17947); assay: DAPPL (digital affinity profiling via proximity ligation, sequencing); details: 10 mM Tris-HCl pH 7.5, 50 mM NaCl, 1 mM DTT, 4% glycerol, room temperature, 30 min; GST-TFs on glutathione beads, 16-mer random dsDNA library, 0.1% …; high values mean tight binding; double strand, one strand shown; scale: fold enrichment (6-mer frequency, TF over GST control)

| Sequence | binding signal |
| --- | --- |
| AAGACG | 0.792 |
| GGGTCG | 0.614 |
| ACCAGG | 0.694 |
| GGCCGA | 0.722 |
| ACGGGT | 0.836 |
| AGTCGA | 0.447 |
| GGCGCA | 0.601 |
| GTGGGT | 0.503 |
| AGTTGA | 0.838 |
| AGTCAG | 0.55 |
| GTGTGC | 1.01 |
| AGTAGG | 0.758 |
| CGAGTC | 0.504 |
| GAATCG | 0.604 |
| GTGTGT | 0.528 |
| CGGTGT | 0.613 |
| CGTTAG | 0.857 |
| AGCGTT | 0.912 |
| GGTAGC | 0.735 |
| TCGTAA | 0.911 |

Part of the list above in a different format.
ACCAGG
  binding signal: 0.694
GTGTGC
  binding signal: 1.01

(list continues)

| Sequence | binding signal |
| --- | --- |
| ACTGAG | 0.792 |
| GGATAG | 0.646 |
| GATAGG | 0.73 |
| GCCAGG | 0.39 |
| CGGGGC | 0.575 |
| GCGGCC | 0.838 |
| CGGGAC | 0.532 |
| GGGTTA | 0.792 |
| GGACGG | 0.489 |
| CCAGGC | 0.396 |
| GAGAGC | 0.354 |
| TCGGCG | 0.458 |
| GGCCGG | 0.55 |
| GTAGGG | 0.747 |
| CGGAGC | 0.386 |
| GTCCGA | 0.813 |
| TGGAGC | 0.583 |
| GAGATA | 0.615 |
| GCACGT | 0.749 |
| GAACAG | 0.978 |
